# Data: the supplement of paper PMC3334620
# In all, about 33,000 sequences were measured (“E-score (-0.5 to 0.5)”: median about -0.0014, highest 2% from about 0.25 on). Some of the results follow.
# Molecular target: T1, Cad1 (UniProt P24813)
# T1 sequence: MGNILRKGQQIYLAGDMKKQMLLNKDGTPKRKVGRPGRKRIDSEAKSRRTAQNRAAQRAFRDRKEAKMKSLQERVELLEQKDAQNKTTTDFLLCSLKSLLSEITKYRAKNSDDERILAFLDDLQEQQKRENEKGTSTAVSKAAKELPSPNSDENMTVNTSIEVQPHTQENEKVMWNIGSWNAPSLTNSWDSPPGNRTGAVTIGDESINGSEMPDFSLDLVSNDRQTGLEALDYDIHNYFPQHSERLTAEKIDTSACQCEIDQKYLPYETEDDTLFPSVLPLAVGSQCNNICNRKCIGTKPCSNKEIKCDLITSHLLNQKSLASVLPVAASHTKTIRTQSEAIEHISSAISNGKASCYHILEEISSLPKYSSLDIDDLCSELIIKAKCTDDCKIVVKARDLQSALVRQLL
# Assay: PBM E-score (8-mer binding enrichment) (E-score (-0.5 to 0.5)); higher = stronger / more preferred TF binding
# Settings: protein concentration: 100 nM; construct: GST-full length
# Method: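 Universal 'all 10-mer' protein binding microarrays (Agilent AMADID 015681) probed with GST-tagged S. cerevisiae TFs (full-length or DBD) made by in vitro transcription/translation (PURExpress), about 100-200 nM. Bound TF was detected with fluorescent anti-GST. Each ungapped 8-mer (which stands for itself and its reverse complement) is scored by the PBM enrichment score (E-score), a modified Wilcoxon-Mann-Whitney statistic from -0.5 to +0.5, computed with the Universal PBM Analysis Suite. Scale: above 0.35 generally sequence-specific binding.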
row,Sequence,PBM E-score
1,ATCCCGCG,0.171
2,TGCAAACA,-0.159
3,CGAATCGA,0.325
4,ACTAGGCG,0.0697
5,CGTACACA,0.0609
6,TGCGATAA,0.218
7,ATGTCACC,0.0545
8,ACGATACC,0.116
9,CGTGTCTC,-0.16
10,AAGCAGAT,0.183
11,ATGCGTGC,0.072
12,GAAAGCCA,-0.18
13,CTGTCACA,0.0656
14,AAAAATTA,0.254
15,AAGGATCA,-0.0795
16,ATGAAGAC,0.119
17,AACTTTAA,0.202
18,TAGCTGGA,-0.241
19,GAATGTCC,0.0725
20,GGGAGCTA,-0.318
21,CGTACGCC,-0.12
22,ATAAGGCA,-0.0642
23,GAGCGTGA,-0.0968
24,CTCGTGGA,-0.0526
25,ATGAGTTG,-0.0145

row,Sequence,PBM E-score
1,AAGGGTCA,-0.138
2,ATCTTCTA,0.0108
3,GCATTCCC,-0.154
4,TACCTCAA,-0.125
5,ACGGAAGC,0.171
6,CACCCTGC,-0.161
7,TTGTGAAA,0.0278
8,ACATGATC,0.178
9,AAGGTTTA,-0.216
10,CGCCAGCG,0.0804
11,AAAGCAGA,0.0951
12,GACCAACC,0.0482
13,CAAGAGGA,-0.154
14,ACATACCC,-0.0375
15,GCAAAGGA,0.0254
16,ATCAACTA,0.226
17,ATATTCCC,0.00285
18,GAATTGCC,-0.0427
19,CGATTTAA,0.083
20,CATTAAAC,0.0901
21,CTGTAACC,0.0599
22,CAGGGATG,0.0863
23,AGTGGACC,-0.137
24,AATGGGGC,-0.264
25,ATGTCCGA,0.0361

row,Sequence,PBM E-score
1,AAAATATT,0.192
2,GCTCTCCC,-0.223
3,GGGAGGGA,-0.0952
4,ATTATGCA,0.031
5,AAAGCATG,0.0176
6,CCGGGAAA,0.0234
7,GAGTAACA,-0.00744
8,CATAAATC,0.144
9,GATTTGGA,-0.013
10,CAGGATGG,-0.145
11,TAGCGATA,0.182
12,AGGCGAAA,-0.146
13,CGGAGAGA,-0.094
14,AACCATGA,0.0729
15,CAGGTTAC,-0.0155
16,AATGCATT,0.229
17,ATCCAACG,-0.0785
18,ACACACTA,0.187
19,GACGGGAC,-0.233
20,GAATCCAA,-0.0184
21,AAGGAAAC,-0.0901
22,ACCCAGTG,-0.259
23,CGCGCTCA,0.198
24,ATACGACC,-0.131
25,AAGCGAAC,0.043

row,Sequence,PBM E-score
1,CGCCAGGA,-0.0577
2,ACGAGCAG,0.0971
3,AGCGACGG,0.106
4,AAATCATA,0.148
5,CTGGGCTA,-0.0636
6,CTATTTCA,0.191
7,CACCGGAC,-0.135
8,ACCGTCGT,0.196
9,CATCTTCC,-0.0764
10,ACATTGGC,-0.0363
11,GTCGGTTA,0.00175
12,CGGGCGAA,-0.0692
13,GGGCGAAC,0.112
14,CTAGGTAC,0.134
15,GGATGCCC,-0.205
16,ACCGAGCT,0.0164
17,CATATACA,0.177
18,ATATTCCA,0.138
19,ATGGTCAA,0.139
20,CATAGTGA,-0.0782
21,CGCAGACA,0.122
22,CATCCCAG,-0.166
23,ATGACGGC,-0.0574
24,CGAGGAAA,-0.0673
25,CTATTTTC,0.0407

row,Sequence,PBM E-score
1,CTGCACCC,-0.136
2,GCGCTGAC,0.245
3,CTTTACAC,0.172
4,GCTGGCCC,-0.144
5,AGATATGC,-0.167
6,AAGCGTCC,0.0365
7,CAGCAGAG,-0.0408
8,ACTTGTGC,-0.187
9,CAAAGAGA,-0.113
10,AAGGTACA,-0.0137
11,AAAAGTCA,-0.0226
12,CGCTAAAG,0.0404
13,AAATCCTC,-0.0802
14,ATAACTCC,0.0565
15,TCGTTGAA,0.0173
16,CTACGTAC,-0.0392
17,ACGGAACC,0.218
18,CTGGTGAA,-0.16
19,GACGGTTA,-0.202
20,GAATAATA,0.221
21,ACAAGGAT,0.0332
22,ATCGGTCA,0.104
23,CATTATCG,0.0756
24,CACGGTGC,-0.119
25,CCATCGCC,-0.0556

# A different layout for part of the listing above:
row	Sequence	PBM E-score
1	CGCCAGGA	-0.0577
2	ACGAGCAG	0.0971
3	AGCGACGG	0.106
4	AAATCATA	0.148
5	CTGGGCTA	-0.0636
6	CTATTTCA	0.191
7	CACCGGAC	-0.135
8	ACCGTCGT	0.196
9	CATCTTCC	-0.0764
10	ACATTGGC	-0.0363
11	GTCGGTTA	0.00175
12	CGGGCGAA	-0.0692
13	GGGCGAAC	0.112
14	CTAGGTAC	0.134
15	GGATGCCC	-0.205
16	ACCGAGCT	0.0164
17	CATATACA	0.177
18	ATATTCCA	0.138
19	ATGGTCAA	0.139
20	CATAGTGA	-0.0782
21	CGCAGACA	0.122
22	CATCCCAG	-0.166
23	ATGACGGC	-0.0574
24	CGAGGAAA	-0.0673
25	CTATTTTC	0.0407
1	CTGCACCC	-0.136
2	GCGCTGAC	0.245
3	CTTTACAC	0.172
4	GCTGGCCC	-0.144
5	AGATATGC	-0.167
6	AAGCGTCC	0.0365
7	CAGCAGAG	-0.0408
8	ACTTGTGC	-0.187
9	CAAAGAGA	-0.113
10	AAGGTACA	-0.0137
11	AAAAGTCA	-0.0226
12	CGCTAAAG	0.0404
13	AAATCCTC	-0.0802
14	ATAACTCC	0.0565
15	TCGTTGAA	0.0173
16	CTACGTAC	-0.0392
17	ACGGAACC	0.218
18	CTGGTGAA	-0.16
19	GACGGTTA	-0.202
20	GAATAATA	0.221
21	ACAAGGAT	0.0332
22	ATCGGTCA	0.104
23	CATTATCG	0.0756
24	CACGGTGC	-0.119

# Following part:

row,Sequence,PBM E-score
1,ACGACCCG,0.112
2,ACGGGGGA,-0.273
3,CCTATACA,0.0765
4,AAAGCGAC,0.0955
5,ATAAAAAG,0.174
6,GGGAATAA,0.2
7,CTCTGCAC,-0.0219
8,AAAGCACT,0.14
9,AATACGCC,0.0775
10,CCGCTATC,0.0194
11,CGTCCCCA,-0.137
12,GGATTTGA,-0.0857
13,CTGTATAC,0.0948
14,GTCAGTCA,0.0261
15,GTCACCTA,-0.132
16,ACTTAATC,0.00296
17,ACGATTGC,0.213
18,GGCATCAC,-0.0624
19,GGTATCAC,-0.0764
20,AGGTTTTC,0.048
21,AGCCTAGG,-0.113
22,ACCTTAAA,-0.0455
23,AATTCGGT,0.266
24,GTACAGCA,0.032
25,ATACACAT,0.122

row,Sequence,PBM E-score
1,ACAGATAC,0.144
2,GTACGCAA,0.0953
3,GCAGTTTA,-0.0956
4,CTGAGGGA,-0.0379
5,CTAGCAGA,0.0267
6,AATCAAGG,0.0051
7,CCCGGCAC,-0.335
8,CCCAAGTA,-0.121
9,CGCACACG,-0.156
10,AGAGTCTA,-0.202
11,GGGACCTA,-0.116
12,ATTTAAAA,0.0372
13,GTCAAGAA,0.181
14,ATTGTGAC,0.147
15,AAGTGGAA,-0.0197
16,CAGCCTTA,-0.0382
17,CCCAAACC,0.00294
18,CAATAATA,0.208
19,AACGGTGC,-0.0173
20,ACTGGGCC,-0.0322
21,CGAACCTC,-0.0124
22,AGCTGAAG,0.0627
23,AGCACCGC,-0.0637
24,ACCGCACC,0.0104
25,AACCATAA,-0.0319

row,Sequence,PBM E-score
1,TCATTCAA,0.13
2,GTGTCGGA,-0.0787
3,GGAGTGAA,-0.116
4,TAGAAGCA,-0.0973
5,AGGTGTTG,0.00353
6,GTACTGAA,0.234
7,ACAATGGC,-0.00507
8,CTGGCCGA,-0.299
9,CTGGCAGC,-0.143
10,AGCATTTA,-0.0909
11,ACGCGTCC,-0.0174
12,CGGATCCC,0.017
13,AGACTTGC,-0.163
14,GACCCGAA,-0.124
15,CCTAAGGC,-0.181
16,ACGTCCCG,-0.0437
17,GATAGGCC,-0.0295
18,GATTACCC,0.215
19,CAAAATCG,0.114
20,ACCGCCAT,-0.063
21,CTTCGCCA,-0.104
22,AAGCCCAC,-0.0637
23,CAATCATG,0.175
24,ACCATGCA,0.122
25,GATTCGCA,0.205

row,Sequence,PBM E-score
1,GCGAGACA,-0.205
2,CAATCATC,-0.0285
3,AGTTCTGG,0.0925
4,CACACGCC,0.0737
5,AGGCGCAT,0.0534
6,AGTCACGG,0.0469
7,CTAATTCC,0.137
8,GTCTTCTA,-0.0184
9,CGCTTTGC,0.126
10,AGAAAGGG,-0.208
11,GGCTAATA,0.123
12,CAAGCGCG,0.0798
13,AAGCAGTA,-0.0768
14,CACCTAAA,0.0285
15,CATGGTCA,0.106
16,GCGTAGCC,-0.11
17,ATCGAGAA,0.194
18,AGGAGGTG,-0.208
19,ACAAGCTG,0.101
